Test results taken from US20230272045A1.
No constants are given. Whether binding was seen depends on the method and setting. Some entries that bind do so weakly or less than the wild type.

The chains behind the UniProt entries cited, without tags or fusion partners. Where a name states a change or a piece, a line headed by the entry shows the natural chain unless it says otherwise. Residues count along the entry.
UniProt P24821, residues 23-2201: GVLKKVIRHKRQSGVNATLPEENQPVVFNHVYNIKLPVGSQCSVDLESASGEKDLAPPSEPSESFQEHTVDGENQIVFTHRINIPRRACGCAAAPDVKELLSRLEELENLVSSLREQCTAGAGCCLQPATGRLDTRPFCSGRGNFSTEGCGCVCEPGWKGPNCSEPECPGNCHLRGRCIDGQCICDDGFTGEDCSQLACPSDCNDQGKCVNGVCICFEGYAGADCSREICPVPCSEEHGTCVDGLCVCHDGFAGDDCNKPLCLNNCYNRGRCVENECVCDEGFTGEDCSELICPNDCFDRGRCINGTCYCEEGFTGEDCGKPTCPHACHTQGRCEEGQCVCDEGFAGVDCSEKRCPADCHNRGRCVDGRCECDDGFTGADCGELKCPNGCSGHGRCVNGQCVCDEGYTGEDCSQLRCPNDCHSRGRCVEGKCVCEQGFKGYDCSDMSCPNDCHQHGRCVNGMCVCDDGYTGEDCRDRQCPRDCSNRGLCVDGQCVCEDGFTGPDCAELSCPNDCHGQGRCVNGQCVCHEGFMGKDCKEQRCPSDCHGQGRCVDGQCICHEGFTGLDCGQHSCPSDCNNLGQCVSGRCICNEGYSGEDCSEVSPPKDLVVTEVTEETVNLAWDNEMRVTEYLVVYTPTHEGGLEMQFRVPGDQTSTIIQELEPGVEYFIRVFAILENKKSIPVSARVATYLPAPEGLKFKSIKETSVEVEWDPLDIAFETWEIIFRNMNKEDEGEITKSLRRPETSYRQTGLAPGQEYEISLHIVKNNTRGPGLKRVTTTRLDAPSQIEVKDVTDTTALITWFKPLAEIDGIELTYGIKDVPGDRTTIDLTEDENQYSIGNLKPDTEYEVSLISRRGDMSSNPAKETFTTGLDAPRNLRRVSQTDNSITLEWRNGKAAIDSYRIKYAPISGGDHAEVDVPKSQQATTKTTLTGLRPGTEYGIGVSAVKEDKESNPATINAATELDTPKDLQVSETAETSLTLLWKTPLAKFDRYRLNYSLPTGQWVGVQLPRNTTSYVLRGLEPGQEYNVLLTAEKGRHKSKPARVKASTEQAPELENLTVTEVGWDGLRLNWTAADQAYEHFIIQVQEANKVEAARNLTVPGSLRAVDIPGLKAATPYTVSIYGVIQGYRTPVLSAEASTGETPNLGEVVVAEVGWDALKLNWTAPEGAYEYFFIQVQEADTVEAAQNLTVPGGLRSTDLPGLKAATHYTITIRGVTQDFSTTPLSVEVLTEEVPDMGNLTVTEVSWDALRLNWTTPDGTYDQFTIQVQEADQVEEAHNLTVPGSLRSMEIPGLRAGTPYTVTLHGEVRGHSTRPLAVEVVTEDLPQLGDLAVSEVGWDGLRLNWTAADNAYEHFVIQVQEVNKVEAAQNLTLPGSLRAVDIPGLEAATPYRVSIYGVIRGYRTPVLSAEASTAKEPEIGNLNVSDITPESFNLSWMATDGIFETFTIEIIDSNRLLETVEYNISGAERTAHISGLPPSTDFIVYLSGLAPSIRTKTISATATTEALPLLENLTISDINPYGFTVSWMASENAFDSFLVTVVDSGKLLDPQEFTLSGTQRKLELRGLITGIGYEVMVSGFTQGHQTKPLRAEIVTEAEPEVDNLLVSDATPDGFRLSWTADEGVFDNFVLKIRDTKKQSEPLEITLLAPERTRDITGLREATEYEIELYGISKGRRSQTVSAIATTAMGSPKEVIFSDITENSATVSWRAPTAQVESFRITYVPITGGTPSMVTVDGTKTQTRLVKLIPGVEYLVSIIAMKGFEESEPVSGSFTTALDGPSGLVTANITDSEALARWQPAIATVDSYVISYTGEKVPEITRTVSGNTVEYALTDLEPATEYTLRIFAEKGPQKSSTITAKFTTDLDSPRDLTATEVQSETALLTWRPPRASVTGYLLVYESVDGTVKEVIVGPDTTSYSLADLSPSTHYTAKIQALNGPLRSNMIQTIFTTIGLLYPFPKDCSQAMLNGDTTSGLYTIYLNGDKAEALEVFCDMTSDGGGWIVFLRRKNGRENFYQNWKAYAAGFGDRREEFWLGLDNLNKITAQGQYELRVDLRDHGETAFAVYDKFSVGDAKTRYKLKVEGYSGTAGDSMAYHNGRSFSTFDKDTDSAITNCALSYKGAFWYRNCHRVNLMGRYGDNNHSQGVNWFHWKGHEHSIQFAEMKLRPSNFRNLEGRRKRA
UniProt P02671: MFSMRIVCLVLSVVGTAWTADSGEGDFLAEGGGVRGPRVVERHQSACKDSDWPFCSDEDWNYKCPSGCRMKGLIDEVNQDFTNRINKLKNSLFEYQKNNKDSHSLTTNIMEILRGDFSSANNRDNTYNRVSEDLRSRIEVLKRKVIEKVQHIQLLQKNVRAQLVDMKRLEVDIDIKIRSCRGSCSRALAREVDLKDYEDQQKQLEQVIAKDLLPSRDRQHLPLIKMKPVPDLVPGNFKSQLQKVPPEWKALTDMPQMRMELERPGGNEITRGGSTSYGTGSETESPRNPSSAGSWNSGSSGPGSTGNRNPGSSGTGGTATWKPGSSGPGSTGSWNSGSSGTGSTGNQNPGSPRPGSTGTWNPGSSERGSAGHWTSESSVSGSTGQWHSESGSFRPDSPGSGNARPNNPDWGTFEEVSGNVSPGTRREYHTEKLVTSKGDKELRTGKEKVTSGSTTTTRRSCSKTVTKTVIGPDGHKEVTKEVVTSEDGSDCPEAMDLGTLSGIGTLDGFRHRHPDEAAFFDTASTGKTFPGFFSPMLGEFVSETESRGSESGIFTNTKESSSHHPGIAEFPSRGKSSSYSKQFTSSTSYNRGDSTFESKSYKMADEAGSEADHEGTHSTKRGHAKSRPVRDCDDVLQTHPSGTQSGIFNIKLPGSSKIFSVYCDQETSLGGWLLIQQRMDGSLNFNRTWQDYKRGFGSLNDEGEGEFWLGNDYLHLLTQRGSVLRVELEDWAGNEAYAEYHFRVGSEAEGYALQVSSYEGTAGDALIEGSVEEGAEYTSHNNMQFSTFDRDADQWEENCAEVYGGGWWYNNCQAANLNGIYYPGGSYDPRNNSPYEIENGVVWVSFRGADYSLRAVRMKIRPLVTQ
UniProt P02675: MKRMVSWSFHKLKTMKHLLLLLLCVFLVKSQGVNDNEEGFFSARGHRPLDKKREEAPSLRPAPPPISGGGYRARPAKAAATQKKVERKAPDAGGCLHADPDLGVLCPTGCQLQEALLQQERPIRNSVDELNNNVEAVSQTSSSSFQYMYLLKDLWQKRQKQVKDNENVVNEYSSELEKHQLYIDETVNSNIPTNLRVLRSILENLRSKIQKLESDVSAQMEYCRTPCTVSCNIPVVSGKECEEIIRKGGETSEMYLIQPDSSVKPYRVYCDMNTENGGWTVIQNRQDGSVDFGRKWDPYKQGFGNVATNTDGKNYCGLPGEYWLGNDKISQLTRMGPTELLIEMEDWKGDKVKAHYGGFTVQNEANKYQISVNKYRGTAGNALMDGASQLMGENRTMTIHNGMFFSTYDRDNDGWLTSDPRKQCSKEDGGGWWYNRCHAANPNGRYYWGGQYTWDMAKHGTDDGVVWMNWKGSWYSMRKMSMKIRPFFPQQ
UniProt P02679: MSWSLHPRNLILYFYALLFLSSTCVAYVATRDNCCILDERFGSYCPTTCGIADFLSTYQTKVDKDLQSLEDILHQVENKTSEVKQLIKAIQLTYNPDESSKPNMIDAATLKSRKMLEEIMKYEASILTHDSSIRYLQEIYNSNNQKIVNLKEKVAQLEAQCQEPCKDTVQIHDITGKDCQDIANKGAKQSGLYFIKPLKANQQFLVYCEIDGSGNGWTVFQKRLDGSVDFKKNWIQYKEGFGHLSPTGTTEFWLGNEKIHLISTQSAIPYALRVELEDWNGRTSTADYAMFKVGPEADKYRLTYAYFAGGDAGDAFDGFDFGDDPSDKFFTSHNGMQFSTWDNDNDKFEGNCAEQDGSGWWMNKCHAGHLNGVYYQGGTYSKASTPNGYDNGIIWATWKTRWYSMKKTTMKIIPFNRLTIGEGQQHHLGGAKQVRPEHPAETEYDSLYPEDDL
UniProt P04004, residues 20-478: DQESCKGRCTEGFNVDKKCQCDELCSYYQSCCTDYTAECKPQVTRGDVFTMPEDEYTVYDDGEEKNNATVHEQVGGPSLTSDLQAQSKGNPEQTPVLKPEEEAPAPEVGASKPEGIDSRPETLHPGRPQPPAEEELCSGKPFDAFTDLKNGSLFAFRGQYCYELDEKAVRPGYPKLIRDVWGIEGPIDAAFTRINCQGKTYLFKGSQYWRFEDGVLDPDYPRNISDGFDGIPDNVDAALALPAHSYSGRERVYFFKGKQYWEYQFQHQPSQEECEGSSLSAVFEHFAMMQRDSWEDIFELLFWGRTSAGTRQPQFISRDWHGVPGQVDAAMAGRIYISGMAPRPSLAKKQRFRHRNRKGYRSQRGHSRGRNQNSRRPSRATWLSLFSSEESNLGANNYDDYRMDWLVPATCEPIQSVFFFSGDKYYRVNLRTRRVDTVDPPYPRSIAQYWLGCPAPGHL

B1: BMP-2 (bone morphogenetic protein-2, Peprotech) (ligand, murine, UniProt P21274 281-394, looked up)
chain: QAKHKQRKRLKSSCKRHPLYVDFSDVGWNDWIVAPPGYHAFYCHGECPFPLADHLNSTNHAIVQTLVNSVNSKIPKACCVPTELSAISMLYLDENEKVVLKNYQDMVVEGCGCR
B2: amphiregulin (AREG) (ligand, UniProt P15514 101-198, looked up)
chain: SVRVEQVVKPPQNKTESENTSDKPKRKKKGGKNGKNRRNRKKKNPCNAEFQNFCIHGECKYIEHLEAVTCKCQQEYFGERCGEKSMKTHSMIDSSLSK
B3: neurturin (NRTN) (ligand, UniProt Q99748 96-197, looked up)
chain: ARLGARPCGLRELEVRVSELGLGYASDETVLFRYCAGACEAAARVYDLGLRRLRQRRRLRRERVRAQPCCRPTAYEDEVSFLDAHSRYHTVHELSARECACV

Assays:
human tenascin C (human) [1] = target: human tenascin C (human) (UniProt P24821); test: ELISA; ECM protein coated at 100 nM, BMP-2 0.1 to 100 nM
human fibrinogen (human) = human fibrinogen (human) (UniProt P02671+P02675+P02679); test: ELISA
[2] = target: human plasma fibronectin (human) (UniProt P02751); test: ELISA
human tenascin C (human) [3] = target: human tenascin C (human) (UniProt P24821); test: ELISA
[4] = target: human vitronectin (human) (UniProt P04004); test: ELISA

Binder	binding (human tenascin C (human) [1])	binding (human fibrinogen (human))	binding [2]	binding (human tenascin C (human) [3])	binding [4]
B1	binds	–	–	–	–
B2	–	binds	binds	binds	binds
B3	–	–	binds	binds	binds
